Experimental data taken from PMC5735797.
Results are given in words; binding and its absence hold for the method and conditions named. In cells and extracts the contact can be indirect. Some entries that bind do so weakly or less than the wild type. Sequences can lack the tags named with a protein.

Target: APOBEC3G with HA tag (pcDNA3.1-A3G-HA), Q9HC16
Test: co-IP; lysates of transfected 293T cells (150 mM NaCl, 50 mM Tris-HCl pH 7.5, 1 mM EDTA, 1% Triton X-100, 0.5% NP-40) on anti-HA agarose beads, 4 h at 4 °C, four washes, western blotting; in some panels cells treated with MG132 (4 μM, 16 h) or co-transfected with siRNAs against ElonginB, ElonginC or Cullin 5
Details: remark: other sources report otherwise

B1: MOV10 with FLAG tag (pcDNA3.1-MOV10-FLAG), Q9HCE1 1-1003 (protein)
chain: MPSKFSCRQLREAGQCFESFLVVRGLDMETDRERLRTIYNRDFKISFGTPAPGFSSMLYGMKIANLAYVTKTRVRFFRLDRWADVRFPEKRRMKLGSDISKHHKSLLAKIFYDRAEYLHGKHGVDVEVQGPHEARDGQLLIRLDLNRKEVLTLRLRNGGTQSVTLTHLFPLCRTPQFAFYNEDQELPCPLGPGECYELHVHCKTSFVGYFPATVLWELLGPGESGSEGAGTFYIARFLAAVAHSPLAAQLKPMTPFKRTRITGNPVVTNRIEEGERPDRAKGYDLELSMALGTYYPPPRLRQLLPMLLQGTSIFTAPKEIAEIKAQLETALKWRNYEVKLRLLLHLEELQMEHDIRHYDLESVPMTWDPVDQNPRLLTLEVPGVTESRPSVLRGDHLFALLSSETHQEDPITYKGFVHKVELDRVKLSFSMSLLSRFVDGLTFKVNFTFNRQPLRVQHRALELTGRWLLWPMLFPVAPRDVPLLPSDVKLKLYDRSLESNPEQLQAMRHIVTGTTRPAPYIIFGPPGTGKTVTLVEAIKQVVKHLPKAHILACAPSNSGADLLCQRLRVHLPSSIYRLLAPSRDIRMVPEDIKPCCNWDAKKGEYVFPAKKKLQEYRVLITTLITAGRLVSAQFPIDHFTHIFIDEAGHCMEPESLVAIAGLMEVKETGDPGGQLVLAGDPRQLGPVLRSPLTQKHGLGYSLLERLLTYNSLYKKGPDGYDPQFITKLLRNYRSHPTILDIPNQLYYEGELQACADVVDRERFCRWAGLPRQGFPIIFHGVMGKDEREGNSPSFFNPEEAATVTSYLKLLLAPSSKKGKARLSPRSVGVISPYRKQVEKIRYCITKLDRELRGLDDIKDLKVGSVEEFQGQERSVILISTVRSSQSFVQLDLDFNLGFLKNPKRFNVAVTRAKALLIIVGNPLLLGHDPDWKVFLEFCKENGGYTGCPFPAKLDLQQGQNLLQGLSKLSPSTSGPHSHDYLPQEREGEGGLSLQVEPEWRNEL
Question: For B1, which binding is on record?
Answer: binds
